# Assay results as given in PubChem BioAssay AID652054 (National Center for Advancing Translational Sciences (NCATS), 2013).
# Amino acid sequences for entries named in this document (tags omitted).
# UniProt P35462, whole entry, looked up: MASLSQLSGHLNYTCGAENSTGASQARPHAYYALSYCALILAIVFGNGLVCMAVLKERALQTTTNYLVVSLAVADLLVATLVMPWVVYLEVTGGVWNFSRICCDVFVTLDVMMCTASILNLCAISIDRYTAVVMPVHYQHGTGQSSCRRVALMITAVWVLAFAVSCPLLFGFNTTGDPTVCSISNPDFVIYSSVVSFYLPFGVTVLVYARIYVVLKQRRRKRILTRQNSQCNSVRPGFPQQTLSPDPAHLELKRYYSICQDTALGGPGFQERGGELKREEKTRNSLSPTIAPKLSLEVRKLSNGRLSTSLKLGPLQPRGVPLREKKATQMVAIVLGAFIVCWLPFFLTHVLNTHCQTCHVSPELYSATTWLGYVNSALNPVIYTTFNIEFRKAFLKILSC
# The campaign covered roughly 360,000 compounds. About 9,100 (2.5%) were called active. Inconclusive results, whose numbers are uncertain, are shown with a selection of clear calls. Cut-off read from the data, not from the text of the source: active = max response below about -50%; inconclusive = no clear call, values can overlap the other calls; inactive = above that.
# Biological target: D(3) dopamine receptor (Homo sapiens) (UniProt P35462)
# Experiment: qHTS of D3 Dopamine Receptor Antagonist: qHTS
# Conditions: D3R cells, DiscoveRx beta-arrestin luminescence, antagonist mode; stronger effect = lower value
# In short: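 Cells plated overnight at 1500 cells/well, then exposed to library compounds with dopamine controls for 90 minutes at 37 degrees C. DiscoveRx reagent added for 30–60 minutes at room temperature; luminescence read, quantitative HTS format.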
# % is set by controls: 0 for no effect and ±100 for the full control effect.
row,SMILES,"max response, negative = inhibition"
1,Cc1ccc(NC(=O)Nc2nnc([C@@H]3C[C@H](O)[C@@H](CO)O3)s2)cc1,inactive: 30.3%
2,CC1=C(C(=O)N(C)C)C(c2ccc(N3CCOCC3)cc2)NC(=O)N1 (stereo not drawn),inactive: 0.585%
3,COc1ccc(C(=O)NC(=S)N2CCN(c3ccccc3OC)CC2)cc1OC,inconclusive: -41.3%
4,Cc1ccc(-c2nc3n(n2)Cc2ccccc2-3)cc1,inconclusive: -40.9%
5,O=C(Cn1nc(CNc2ccc(Cl)cc2)[n+]2c1CCCCC2)c1ccc(Br)cc1,inconclusive: -46.1%
6,Cc1ccc(-c2nn(CCC(=O)O)cc2/C=C\C(=O)c2ccc(Br)cc2)cc1,inactive: -27.2%
7,O=C(/C(N=Nc1cccc(C(F)(F)F)c1)=C(/O)c1cccs1)C(F)(F)F,inconclusive: -42.3%
8,O=C(NCc1nnc(SCc2ccc(F)cc2)n1-c1ccccc1)C12CC3CC(CC(C3)C1)C2,active: -51.1%
9,COc1ccccc1NC(=S)Nc1ccccn1,inactive: 4.53%
10,COc1ccc(Nc2ccc(C(=O)O)cc2[N+](=O)[O-])cc1,inconclusive: -34.9%
11,CC(=O)Nc1ccc(CN2CCCCCC2)cc1,inconclusive: -38.2%
12,COc1cccc(NC(=O)[C@H](C)NC(=O)N2CCn3c2nc2ccccc23)c1,inactive: 0.201%
13,COc1cccc(CN2CCN(Cc3cccc(Br)c3)CC2)c1OC,inconclusive: -48.6%
14,N/C(Cc1ccc([N+](=O)[O-])cc1)=N\OC(=O)c1ccc2ccccc2c1,inconclusive: -35.8%
15,Cn1nnc(NC(=S)NC(=O)Cc2ccccc2)n1,active: -63.8%
16,CCc1ccc(OCc2cccc(C(=O)N/N=C\c3cnn(C)c3C)c2)cc1,inactive: -1.38%
17,COC(=O)c1cn(CCOc2ccccc2)c2ccccc12,inactive: 0%
18,O=S(=O)(Nc1cc(Sc2ncn[nH]2)c(O)c2ccccc12)c1ccccc1,active: -100%
19,O=C(N/N=C/c1ccc(OCc2ccccc2)cc1)c1cc[n+](Cc2ccccc2)cc1,active: -59.3%
20,CC(=O)c1sc(NC(=O)c2ccc(COc3ccccc3Cl)o2)nc1C,inconclusive: -30.4%
21,CCCNc1nc(Nc2ccc(C)cc2)nc(N2CCCC2)n1,inconclusive: -33.6%
22,CCCC1CCC(c2ccc(OCC)cc2)=CC1=O (stereo not drawn),inactive: 10.1%

row,SMILES,"max response, negative = inhibition"
1,COC(=O)C1=C(C)N(Cc2ccccc2)C(=O)N[C@H]1c1cccc(C(F)(F)F)c1,inactive: 0.924%
2,COc1ccc(S(=O)(=O)N2CCOCC2)cc1NC(=O)CCc1cc(OC)c(OC)c(OC)c1,inconclusive: -37.3%
3,COc1ccc(Cl)cc1-c1cc(C(=O)Nc2ccccc2)[nH]n1,inactive: -25.9%
4,COc1ccc([N+](=O)[O-])cc1N(CC(O)CN(CC(C)C)CC(C)C)S(=O)(=O)c1ccccc1 (stereo not drawn),inconclusive: -40.3%
5,COc1ccccc1N1CCN(C2CCN(C(=O)COc3cccc(C)c3)CC2)CC1,inconclusive: -41%
6,COCCCNC(=O)CC(NS(=O)(=O)c1ccc(C)cc1)c1ccco1 (stereo not drawn),active: -58%
7,CCC(=O)NC(c1ccc(OC)cc1)c1c(O)ccc2ccccc12 (stereo not drawn),inconclusive: -35.7%
8,CC(=O)Nc1ccc(S(=O)(=O)NCc2ccc(C(=O)NCCN(C)Cc3ccccc3)cc2)cc1,inconclusive: -41.7%
9,COc1cccc(C2SCC(=O)N2c2ccc(Br)cc2)c1OC (stereo not drawn),inconclusive: -32.5%
10,O=C(CN1CCN(Cc2ccc(Cl)cc2)C1=O)NCCCN1CCN(c2ccc(F)cc2)CC1,active: -65.8%
11,CCCCNC(=O)OC(C)CNC(=O)Oc1cccc(C)c1 (stereo not drawn),inconclusive: -34.5%
12,CC(C)Oc1cccc(C(=O)Nc2ccc(NC(=O)c3ccco3)cc2)c1,inconclusive: -41.7%
13,Cc1nc(NC(=O)CSc2nc3ccccc3s2)sc1C(=O)N(C)C,inconclusive: -46.2%
14,COc1ccc(OCc2nc3ccccc3[nH]2)cc1,inactive: 12.3%
15,Cn1c(SCc2cc([N+](=O)[O-])cc3c2OCOC3)nnc1-c1ccccn1,inconclusive: -30.4%
16,CCCCCCn1c(SCCC)nc2c1c(=O)[nH]c(=O)n2C,inactive: 8.07%
17,Cc1cccc(N2CCN(C(=O)c3[nH]c(C(F)(F)F)nc3-c3ccccc3)CC2)c1C,inconclusive: -45.8%
18,CC(=O)c1cccc(NC(=O)CN(c2ccccc2)S(C)(=O)=O)c1,inconclusive: -32.3%
19,COc1ccc(OC)c(C2C3CN(C(C)C)CC=C3C(C#N)=C(N)C2(C#N)C#N)c1 (stereo not drawn),active: -58.5%
20,O=C(O)c1ccc(C(=O)c2ccc3c(c2)C(=O)N(Cc2ccco2)C3=O)cc1,inconclusive: -34.1%
21,Cc1ccc2c(c1)N(CCC(=O)NCc1cccnc1)C(=O)CO2,inactive: 8.32%
22,COc1ccc(NC(=S)NC(NC(=O)c2cccc(C)c2)C(Cl)(Cl)Cl)c([N+](=O)[O-])c1 (stereo not drawn),active: -82.2%

row,SMILES,"max response, negative = inhibition"
1,Cc1ccc(S(=O)(=O)N2[C@@H](Cc3ccccc3)CO[C@H]2CC(=O)OCc2ccccc2)cc1,inactive: -24.9%
2,N#Cc1cc(C(=O)c2ccccc2O)cn(-c2ccc(Cl)cc2)c1=O,inactive: 15.6%
3,CCOc1ccc(-n2cnc3sc4c(c3c2=O)CCCC4)cc1,inactive: -5.7%
4,CCOc1ccc(C(=O)Oc2cc(C)[nH]c(=O)c2[N+](=O)[O-])cc1,inconclusive: -36.9%
5,O=C(O)COc1ccc2nsnc2c1Cl,inactive: -22.1%
6,CCOC(=O)c1c(-c2ccc(C)cc2)csc1NC(=S)NC(=O)c1ccccc1,inconclusive: -32%
7,CC(=O)c1ccc2c(c1)N(Cc1ccc3ccccc3c1)C(=O)C(C)S2 (stereo not drawn),active: -74.8%
8,CCOc1ccc2nc(-c3ccc(OC)c(OC)c3)cc(C(=O)O)c2c1,inconclusive: -43.2%
9,O=C1NC(=S)N/C1=C/c1cc([N+](=O)[O-])ccc1O,active: -107%
10,Cn1c(COc2ccccc2)nnc1SCCN1CCOCC1,inconclusive: -33%
11,Cn1c2ccccc2c2nnc(SCc3ccc4nonc4c3)nc21,inconclusive: -36.2%
12,CN(C)S(=O)(=O)c1cccc(C(=O)Nc2ccc(Cl)cn2)c1,active: -77.3%
13,COc1ccc(CN2CCN(C(=O)c3cccs3)CC2)c(OC)c1OC,active: -86.1%
14,CN1CCN(Cc2cc(=O)oc3cc4c(cc23)CCC4)CC1,inconclusive: -46.5%
15,CCN(c1ccccc1)S(=O)(=O)c1ccc(Cl)c(C(=O)NC2CCN(Cc3ccccc3)CC2)c1,inconclusive: -43.6%
16,CC(C)CCN1CCN(CC(c2ccccc2)c2ccccc2)CC1CCO (stereo not drawn),inconclusive: -37.5%
17,Cc1ccc(C(=O)/C=C/C(=O)O)cc1,inconclusive: -39.7%
18,COc1ccc(CN2CCN(CCCCOc3ccc(Cl)cc3)CC2)c(OC)c1OC,inconclusive: -31.2%
19,C=CCOc1c(Cl)cc(CNCCC)cc1Cl,inconclusive: -30.4%
20,COCCCNCCCCOc1cccc(Br)c1,active: -61%
21,CC(=O)c1cc2c(cc1NC(=O)C1CC1)OCO2,inconclusive: -36.7%
22,Cc1c(C)c2cc(Cl)c(O)c(CN3CCCC(C)C3)c2oc1=O (stereo not drawn),inconclusive: -48.3%

row,SMILES,"max response, negative = inhibition"
1,Cc1c(C(=O)NC2CCCc3ccccc32)oc2ccccc12 (stereo not drawn),inconclusive: -42.6%
2,COc1ccccc1NS(=O)(=O)c1cccc(N=C2N=C(N)c3ccccc32)c1,inactive: -2.6%
3,NC(=O)CC(NC(=O)c1ccccc1)c1ccc(N2CCCCCC2)c([N+](=O)[O-])c1 (stereo not drawn),inactive: -23.4%
4,N#CCN1CCN(CCC(=O)Nc2ccc(OCc3ccccc3)cc2)CC1,inconclusive: -35.7%
5,COC(=O)c1c(-c2ccc(Br)cc2)csc1NC(=O)Cc1ccc(OC)c(OC)c1,inactive: 21.3%
6,COc1cc(C(C(=O)NCC2CCCO2)N(C(=O)Cn2nnc3ccccc32)c2ccc(OC)c(OC)c2)ccc1O (stereo not drawn),inactive: 15.5%
7,CCOC(=O)[C@]12CCCC=C1N(CCC1=CCCCC1)C(=O)[C@H](CC(=O)N1CCCC1)C2,inconclusive: -36.4%
8,CCOc1cc(/C=C2\N=C(C)OC2=O)cc(Br)c1OCC(=O)OC,inconclusive: -34.1%
9,COc1ccc(CC(N)c2csc(NC(=O)Cc3ccccc3)n2)cc1 (stereo not drawn),inconclusive: -30.1%
10,Cc1cc(C(F)F)n2nc(C(=O)Nc3cccc(S(=O)(=O)N4CCOCC4)c3)nc2n1,inactive: -7.55%
11,N#CC1(c2ccccc2)CCC(NCCc2ccccc2)CC1 (stereo not drawn),active: -53.7%
12,Cc1ccc(C(=O)Nc2cccc(Oc3ccccc3)c2)o1,inactive: 16.7%
13,CC1Cc2ccccc2N1c1nc(C2CC2)nc2c1nnn2Cc1ccccc1 (stereo not drawn),inconclusive: -31.3%
14,CCN1CCN(C(=O)c2ccc(COc3ccc(Cl)cc3)o2)CC1,inconclusive: -35.8%
15,O=[N+]([O-])c1cc(S(=O)(=O)N2CCCC2)ccc1N/N=C/c1cccs1,inconclusive: -40.7%
16,Cc1ccc(NC(=O)C2(NC(=O)c3cccc(N4C(=O)CSC4c4ccccc4)c3)CCCCC2)cc1 (stereo not drawn),inactive: -7.57%
17,COc1cc(N2CCCC2)c(OC)cc1/C=C(/C#N)c1ccc(Br)cc1,inconclusive: -30.1%
18,CNc1snc(C)c1C(=O)OC(C)C(=O)Nc1ccc(F)cc1 (stereo not drawn),inconclusive: -30.1%
19,Cn1nc(-c2ccccn2)nc2c(=O)n(C)c(=O)nc1-2,active: -69.4%
20,CC(=O)N1c2ccc(S(=O)(=O)N3CCCC(C(=O)NC4CCCC(C)C4C)C3)cc2CC1C (stereo not drawn),inactive: 12.5%
21,CC(C)CNC(=O)C1(C)CCCN1C(=O)C(C)(C)Oc1ccc(Cl)cc1 (stereo not drawn),active: -100%
22,CC(C)(C)C(=O)[C@@H]1[C@@H]2C(=O)N(C3CCCCC3)C(=O)[C@@H]2[C@H]2c3ccccc3C=CN12,inconclusive: -47.5%

# Entries shown so far with two or more sulfur atoms:
row,SMILES,"max response, negative = inhibition"
18,O=S(=O)(Nc1cc(Sc2ncn[nH]2)c(O)c2ccccc12)c1ccccc1,active: -100%
13,Cc1nc(NC(=O)CSc2nc3ccccc3s2)sc1C(=O)N(C)C,inconclusive: -46.2%
6,CCOC(=O)c1c(-c2ccc(C)cc2)csc1NC(=S)NC(=O)c1ccccc1,inconclusive: -32%
15,O=[N+]([O-])c1cc(S(=O)(=O)N2CCCC2)ccc1N/N=C/c1cccs1,inconclusive: -40.7%
